Data on one molecule can be found in US20150315279A1 (CELLERANT THERAPEUTICS, published 2015).

In this experiment the target is keyhole limpet hemocyanin. Briefly: ELISA, KLH coated at 2 ug/ml. In general terms: In an ELISA, binding on a coated surface is turned into a signal by an enzyme label.

These are yes or no findings as the source states them, for the method shown. No end group written: not given here.

B1: monoclonal antibody 4G9 (antibody, V domains shown)
VH: QVQLQQSGTELVRPGASVKLSCKASGYTFTDYEMHWVKQTPVHGLEWIGAIDPGTGGIAYNQKFKGKATLTADKSSSTAYMELRSLTSEDSAVYYCTLYDYDLAYWGQGTLVTVSA
VL: DVLMTQTPLSLPVSLGDQASISCRSSQSIVHSNGNTYLEWFLQKPGQSPKLLIYTVSNRFSGVPDRFSGSGSGTDFTLKISRVEAEDLGVYYCFQGSHVPPTFGGGTKLEIK
Take B1: the binding entry is reported as “no binding (tested: 20 ug/ml)”.
